Values from PubChem BioAssay AID686943 (Drosophila RNAi Screening Center, 2013)

Purpose: 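Search across the genome for regulators of signalling from receptor tyrosine kinase to ERK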 (primary screen)
Cell system: Drosophila S2R+ haemocyte-like cells expressing YFP-tagged ERK (Rolled)
Reagents: long dsRNA against Drosophila genes
Conditions: insulin stimulation versus unstimulated cells; dose and duration not given
Measurement: 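Antibody staining for doubly phosphorylated ERK divided by ERK-YFP signal, as plate z-scores, in insulin-treated and untreated cells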
Scale: replicate 1, z-score of dpERK with insulin and replicate 2, z-score of dpERK with insulin: higher = more active ERK per ERK-YFP after insulin; replicate 1, z-score of dpERK under basal conditions: higher = more basal active ERK per ERK-YFP; replicate 1, z-score of ERK-YFP with insulin: higher = more YFP-tagged ERK signal
The screen tested about 23,000 reagents; below is a random part of those that have a named target and a result. 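Extra replicates exist only for a retested subset of genes; insulin dose and duration not given; both raised and lowered dpERK matter.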 Names joined by + are all predicted targets of the reagent. Reagent sequences are not shown. Not stated in the record: the amount of reagent, the time to read-out.

target gene	dsRNA	replicate 1, z-score of dpERK with insulin	replicate 2, z-score of dpERK with insulin	replicate 1, z-score of dpERK under basal conditions	replicate 1, z-score of ERK-YFP with insulin
Alg9 (GeneID 43031)	DRSC14407	-0.53	-0.38	-0.92	0.24
CG14613 (GeneID 33133)	DRSC20625	0.25	-0.85	-0.57	0.09
Lipt1 (GeneID 36795)	DRSC05600	-0.46	0.08	-1.47	0.19
Pi3K68D (GeneID 39329)	DRSC11253	-0.25	-0.15	-0.09	-0.37
CG6106 (GeneID 32816)	DRSC19971	0.76	0.45	1.26	0.46
CG8838 (GeneID 33551)	DRSC00712	-0.28	-0.15	-1.49	0.02
CG7903 (GeneID 43554)	DRSC16338	0.17	-0.32	1.28	0.18
ball (GeneID 43228)	DRSC14145	-1.22	0.2	1.46	0.65
CG10918 (GeneID 33123)	DRSC20472	-0.01	0.42	0.39	0.97
robo3 (GeneID 33314)	DRSC00374	0.01	-0.19	-1.37	0.26
robo3 (GeneID 33314)	DRSC00375	0.55	-0.19	0.54	-0.16
robo3 (GeneID 33314)	DRSC00684	0	-0.26	1.92	0.02
CG16719 (GeneID 39131)	DRSC10222	0.04	0.11	0.45	-0.28
CG31759 (GeneID 326158)	DRSC01230	0.52	0.05	-0.79	-0.69
CG14535 (GeneID 34073)	DRSC02393	-0.34	-0.05	0.61	0.12
Mpcp1 (GeneID 37297)	DRSC07337	0.14	-1	-0.92	0.46
Alp9 (GeneID 38633)	DRSC10486	-0.24	-1.35	-0.4	-0.28
CG8745 (GeneID 39530)	DRSC11033	-0.51	-0.09	-0.02	0.29
CG8745 (GeneID 39530)	DRSC11034	0.34	0.94	2.93	-0.48
CG8745 (GeneID 39530)	DRSC22741	-0.33	0.75	-0.2	-1.91
Ugt37E1 (GeneID 53512)	DRSC02248	0.34	0.55	-0.01	0.15
Tsp86D (GeneID 41310)	DRSC15607	-0.54	-0.62	0.01	-0.36
DCTN6-p27 (GeneID 35195)	DRSC02609	0.68	-0.09	0.3	-0.85
DCTN6-p27 (GeneID 35195)	DRSC22810	0.14	-0.17	0.84	-0.39
CG14252 (GeneID 43238)	DRSC14747	-1.2	-0.25	-0.22	0.43
PH4alphaNE2 (GeneID 43628)	DRSC16544	0.82	0.1	-0.41	-0.16
CG10927 (GeneID 37135)	DRSC06014	0.1	0.52	-0.3	0.19
CG13280 (GeneID 35015)	DRSC02253	0.2	0.67	-0.47	-0.14
pre-mod(mdg4)-W + pre-mod(mdg4)-Y + mod(mdg4) + 3 more	DRSC16328	-0.85	0.16	-0.11	0.17
cv (GeneID 44510)	DRSC17833	-0.2	0.13	1.17	-0.05
CG9649 (GeneID 41727)	DRSC16534	0.48	0.18	0.04	-0.05
CG13003 (GeneID 32675)	DRSC19522	-0.82	-0.62	-0.15	1.26
CG33061 (GeneID 318838)	DRSC09938	0.28	-0.82	1.15	-0.46
CG33061 (GeneID 318838)	DRSC22897	0.25	0.44	-0.15	-0.59
CG11267 (GeneID 39476)	DRSC09833	0.25	0.53	0.54	-0.21

Copied from the list.
Entry of CG9649 (GeneID 41727) [DRSC16534] under “replicate 1, z-score of dpERK with insulin”: 0.48
Under “replicate 1, z-score of ERK-YFP with insulin”, CG14535 (GeneID 34073) [DRSC02393] shows 0.12
CG10927 (GeneID 37135) [DRSC06014], replicate 1, z-score of dpERK under basal conditions: -0.3
Under “replicate 1, z-score of dpERK under basal conditions”, CG11267 (GeneID 39476) [DRSC09833] shows 0.54
Value of robo3 (GeneID 33314) [DRSC00374] in “replicate 2, z-score of dpERK with insulin”: -0.19

Further results follow.
target gene	dsRNA	replicate 1, z-score of dpERK with insulin	replicate 2, z-score of dpERK with insulin	replicate 1, z-score of dpERK under basal conditions	replicate 1, z-score of ERK-YFP with insulin
alphaTry (GeneID 48316)	DRSC07577	0.72	0.42	0.08	0.02
beg (GeneID 39910)	DRSC10923	-0.12	0.2	0.28	0.53
ph-p (GeneID 31181)	DRSC18820	1.01	-0.43	0.45	0.13
osy (GeneID 43186)	DRSC14903	-0.43	-0.11	-0.66	0.32
osy (GeneID 43186)	DRSC15979	0.48	-0.04	1.26	0.29
osy (GeneID 43186)	DRSC15981	0.21	-0.61	0.5	-0.2
CG7059 (GeneID 42626)	DRSC16187	0.23	-0.03	-0.36	0.34
CG6421 (GeneID 46813)	DRSC07420	0.33	1.5	-0.4	1.72
PGAP3 (GeneID 35570)	DRSC04989	0.25	-0.12	-0.27	0.26
Adi1 (GeneID 326189)	DRSC10945	1.26	0.9	0.72	-0.06
Adi1 (GeneID 326189)	DRSC21485	0.13	1.47	0.42	0.04
VGAT (GeneID 36574)	DRSC07160	0.35	0.86	1.19	0.11
Pgk (GeneID 33461)	DRSC00769	0.79	0.96	1.76	-1.37
CG43100 (retired record) (GeneID 12798302)	DRSC01001	0.59	0.36	-0.05	0.26
CG15093 (GeneID 37166)	DRSC06522	0.74	0.48	0.62	-0.08
ppk10 (GeneID 3885617)	DRSC01123	-0.89	-0.07	-1.31	0.47
C3G (GeneID 31618)	DRSC17745	0.91	0.54	0.16	-0.35
C3G (GeneID 31618)	DRSC17929	0.64	0.64	1.86	0.24
C3G (GeneID 31618)	DRSC22329	0.67	1.24	-0.8	1.4
CG10137 (GeneID 35241)	DRSC02014	0.33	1	0.06	-2.56
CG10137 (GeneID 35241)	DRSC02015	0.68	0.23	-0.4	0.17
CG30099 (GeneID 36818)	DRSC07039	0.01	-0.19	0.87	0.01
